The data set concerns the target T1, DrHU T37E (Deinococcus radiodurans R1 (ATCC13939)) (UniProt Q9RZ89).
T1 sequence (looked up): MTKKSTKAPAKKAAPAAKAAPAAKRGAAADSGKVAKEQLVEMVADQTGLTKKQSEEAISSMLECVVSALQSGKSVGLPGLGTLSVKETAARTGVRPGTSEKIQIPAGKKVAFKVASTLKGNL
Put plainly: hydroxyl radical protection. The following applies: weaker protection than WT, recombinant protein, residues 1-122, protein details: N-terminal His-MBP (pET28a-HMT), removed by TEV.

The exact form of at least one protein or probe is not confirmed. Weaker means in comparison with the reference protein, sequence or condition of that experiment. At least one verdict rests on a figure or table, not on a statement of the authors. Protein sequences can lack the tags named with them.

Results on one sequence are retold here after PMC9900698, “Phosphorylation Regulation of a Histone-like HU Protein from Deinococcus radiodurans”.

On to “AAGCTTGCCACCATGTACCCATACGACGTACCAGATTACGCTTTCATCAACGGCTACGCCCCTCAGAATCTGAGCATCAGAGGCGAGTACCAGATCAACTTTCACATCGTGAACTGGAATCTGTCCAACCCTGACCCCACCTCCAGCGAGTACATCACCCTGCTGAGAGATATCCAGGACAAGGTGACAACACTGTACAAGGGCTCCCAGCTGCACGATACCTTCAGATTTTGCCTGGTGACAAATCTGACAATGGATTCCGTGCTGGTGACCGTGAAGGCCCTGTTTAGCTCCAACCTGGACCCCTCCCTGGTGGAGCAGGTGTTCCTGGACAAGACACTGAACGCCAGCTTTCACTGGCTGGGCTCCACCTACCAGCTGGTGGACATCCACGTGACAGAGATGGAGAGCAGCGTGTACCAGCCTACCAGCTCCTCCAGCACCCAGCACTTTTACCTGAATTTCACAATCACCAACCTGCCTTACAGCCAGGACAAGGCCCAGCCCGGCACAACCAACTACCAGAGAAACAAGAGGAATATCGAGGACGCCCTGAATCAGCTGTTCAGGAACTCCAGCATCAAGTCCTACTTTTCCGATTGCCAGGTGTCCACCTTTAGAAGCGTGCCTAATAGACACCACACCGGCGTGGATAGCCTGTGTAATTTTTCCCCCCTGGCCAGAAGAGTGGACAGGGTGGCCATCTACGAGGAGTTTCTGAGAATGACCAGAAACGGCACCCAGCTGCAGAATTTTACCCTGGATAGAAGCTCCGTGCTGGTCGATGGCTACAGCCCTAACAGAAATGAGCCCCTGACCGGCAATTCCGATCTGCCTTTCTGGGCCGTGATCCTGATCGGCCTGGCCGGCCTGCTGGGCGTTATCACATGCCTGATCTGTGGCGTGCTGGTGACAACAAGAAGGAGGAAGAAGGAGGGCGAGTACAATGTGCAGCAGCAGTGCCCCGGCTACTACCAGTCCCACCTGGACCTGGAGGATCTGCAGGATTACAAGGACGACGATGACAAG (double strand) [1-kb duplex DNA]”, for which the binding result is recorded as “binds more weakly”.
